Laboratory results published in publication PMC9654567.
Where two headings read alike, the source gives them in different places. These are yes or no findings as the source states them, for the method shown. In cells and extracts the contact can be indirect. Some binding calls cover weakened binding; strength is not graded here. Sequences can lack the tags named with a protein. Values belong to the molecule of their own block, whether it stands above or below them.

How the values were obtained:
Experiment in all cases: co-IP; lysate of the SUN5 stable overexpression cell line (IP lysis solution with phosphatase inhibitor cocktail); antibodies pre-bound to magnetic beads, incubated with total protein at 4 °C overnight; Western blotting of the precipitate
[1] = target: T1, SUN5 with Flag tag (pLVX-IRES-Puro-SUN5-Flag) (UniProt Q8TC36)
T1 sequence: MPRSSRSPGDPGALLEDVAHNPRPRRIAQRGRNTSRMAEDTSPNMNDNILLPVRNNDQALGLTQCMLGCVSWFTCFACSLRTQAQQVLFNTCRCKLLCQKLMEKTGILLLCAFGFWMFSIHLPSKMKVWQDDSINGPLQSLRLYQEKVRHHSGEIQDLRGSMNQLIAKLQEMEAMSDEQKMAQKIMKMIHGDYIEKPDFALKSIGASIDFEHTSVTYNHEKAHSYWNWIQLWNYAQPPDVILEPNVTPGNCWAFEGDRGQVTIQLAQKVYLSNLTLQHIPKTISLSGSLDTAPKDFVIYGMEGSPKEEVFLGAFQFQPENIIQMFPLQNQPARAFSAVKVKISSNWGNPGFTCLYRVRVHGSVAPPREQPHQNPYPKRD

[2] = target: T2, nucleoporin 93 (Nup93) (human (endogenous in SUN5-OE CRC cells, LoVo or DLD-1)) (UniProt Q8N1F7)
T2 sequence: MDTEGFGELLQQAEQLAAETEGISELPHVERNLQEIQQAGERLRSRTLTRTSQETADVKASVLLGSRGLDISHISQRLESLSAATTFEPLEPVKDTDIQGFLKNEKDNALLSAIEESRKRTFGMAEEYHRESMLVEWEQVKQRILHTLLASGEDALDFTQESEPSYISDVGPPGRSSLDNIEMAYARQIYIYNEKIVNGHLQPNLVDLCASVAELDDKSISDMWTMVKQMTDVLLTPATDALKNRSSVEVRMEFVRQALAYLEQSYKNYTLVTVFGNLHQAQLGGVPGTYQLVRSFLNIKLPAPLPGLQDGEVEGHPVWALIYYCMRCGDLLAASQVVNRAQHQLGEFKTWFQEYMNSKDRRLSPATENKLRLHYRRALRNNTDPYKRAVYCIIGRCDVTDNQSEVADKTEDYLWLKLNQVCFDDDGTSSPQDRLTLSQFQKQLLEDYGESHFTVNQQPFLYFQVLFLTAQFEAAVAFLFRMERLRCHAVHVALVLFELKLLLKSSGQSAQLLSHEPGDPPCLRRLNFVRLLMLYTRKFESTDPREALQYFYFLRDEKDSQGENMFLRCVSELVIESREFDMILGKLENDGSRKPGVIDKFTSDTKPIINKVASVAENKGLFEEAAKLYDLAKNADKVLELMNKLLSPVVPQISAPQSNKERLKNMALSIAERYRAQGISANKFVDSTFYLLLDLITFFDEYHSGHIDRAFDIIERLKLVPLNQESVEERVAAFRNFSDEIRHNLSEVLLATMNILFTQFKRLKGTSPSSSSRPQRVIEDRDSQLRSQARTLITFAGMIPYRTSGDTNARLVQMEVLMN

[3] = target: T1, SUN5 with Flag tag (pLVX-IRES-Puro-SUN5-Flag); remark: listed apart in the source

binding [1]: binds
Molecule: Nesprin2 (from UniProt Q8WXH0 1-6885)

binding [2]: binds
B1: SUN5 with Flag tag (pLVX-IRES-Puro-SUN5-Flag) (protein, UniProt Q8TC36 1-379)
chain: T1 sequence

binding [3]: binds
B2: nucleoporin 93 (Nup93) (protein, UniProt Q8N1F7 1-819)
chain: T2 sequence
